According to patent publication US20220016215A1, “GIP RECEPTOR AGONIST PEPTIDE COMPOUNDS AND USES THEREOF” (TAKEDA PHAARMACEUTICAL COMPANY LIMITED, priority 2018, published 2022):
Not every detail of the peptide structures is certain; ends, links or a residue may be inferred.

Target: T1, human GIPR (Homo sapiens, UniProt P48546)
T1 construct: expressed in transfected cells
T1 sequence (P48546 22-466): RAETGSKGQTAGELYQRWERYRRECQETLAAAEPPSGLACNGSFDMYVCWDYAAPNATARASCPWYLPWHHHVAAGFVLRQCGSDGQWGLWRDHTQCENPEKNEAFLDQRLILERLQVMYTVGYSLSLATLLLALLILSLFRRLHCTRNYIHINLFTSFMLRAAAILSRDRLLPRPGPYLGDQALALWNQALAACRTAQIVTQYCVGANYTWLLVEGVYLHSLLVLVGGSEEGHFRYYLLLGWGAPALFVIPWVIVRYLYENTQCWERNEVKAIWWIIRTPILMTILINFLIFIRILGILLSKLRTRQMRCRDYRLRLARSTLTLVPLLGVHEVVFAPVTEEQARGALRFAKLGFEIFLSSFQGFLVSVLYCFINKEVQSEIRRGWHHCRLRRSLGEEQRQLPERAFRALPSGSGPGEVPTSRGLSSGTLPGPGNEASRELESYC
Test: Agonist activity on human GIPR, CRE-luciferase reporter assay (increase in intracellular cAMP as indicator)
Format: cell-based
Conditions: hGIPR/CRE-LUC/CHO-K1 cells, 4 h incubation
Excerpt: The human GIPR gene having an identical sequence to Genebank Accession No. U39231 is cloned into a pMSRα-neo vector to prepare hGIPR/pMSRα-neo.
(2) Construction of Reporter Plasmid Expressing Cell
Luciferase reporter gene with a cAMP-responsive sequence located upstream is transferred to a CHO-K1 cell to construct a CRE-LUC/CHO-K1 cell.
(4) Transfer of Human GIPR Gene to CRE-LUC/CHO-K1 Cell and Obtaining of Expressing Cell
The plasmid hGIPR/pMSRα-neo obtained in (1) is transferred to the CRE-LUC/CHO-K1 cell obtained in (2) to obtain a transformant. Subsequently, the cell line inducing the luciferase expression, hGIPR/CRE-LUC/CHO-K1 cell, is selected from the obtained transformant by adding GIP.
25 μL each of the hGIPR/CRE-LUC/CHO-K1 cell is inoculated in a 384-well white plate (Corning) in such a way as to provide 5×10^3 cells/well and may be cultured in a HamF12 medium containing 10% fetal bovine serum, 100 U/mL penicillin, and 100 μg/mL streptomycin in a CO2 incubator at 37° C. overnight. 5 μL of a medium containing a test compound is added to the cells and incubated for 4 hours at the indicated concentration in a CO2 incubator at 37° C. Steady-Glo (Promega) is added in amounts of 30 μL and shaken under light shielding. Twenty minutes later, luciferase activity is measured using a plate reader Envision (PerkinElmer). The GIPR agonist activity is calculated with increase in intracellular cAMP concentration as the indicator when the luciferase activity in the presence of 10 nM of GIP was 100% and the luciferase activity in the case of adding DMSO instead of the test compound was 0%.

In the case of `CC[C@H](C)[C@H](NC(=O)[C@H](CO)NC(=O)[C@H](Cc1ccc(O)cc1)NC(=O)[C@H](CC(=O)O)NC(=O)[C@H](CO)NC(=O)[C@@H](NC(=O)[C@H](Cc1ccccc1)NC(=O)[C@@H](NC(=O)CNC(=O)[C@H](CCC(=O)O)NC(=O)C(C)(C)NC(=O)[C@@H](N)Cc1ccc(O)cc1)[C@@H](C)O)[C@@H](C)O)C(=O)N[C@@H](Cc1ccc(O)cc1)C(=O)N[C@@H](CC(C)C)C(=O)N[C@@H](CC(=O)O)C(=O)N[C@@H](CCCCN)C(=O)N[C@@H](CCC(N)=O)C(=O)N[C@@H](C)C(=O)N[C@@H](C)C(=O)NC(C)(C)C(=O)N[C@@H](CCC(=O)O)C(=O)N[C@@H](Cc1ccccc1)C(=O)N[C@H](C(=O)N[C@@H](CC(N)=O)C(=O)N[C@@H](Cc1c[nH]c2ccccc12)C(=O)N[C@@H](CC(C)C)C(=O)N[C@@H](CC(C)C)C(=O)N[C@@H](C)C(=O)NCC(=O)NCC(=O)N1CCC[C@H]1C(=O)N[C@@H](CO)C(=O)N[C@@H](CO)C(=O)NCC(=O)N[C@@H](C)C(=O)N1CCC[C@H]1C(=O)N1CCC[C@H]1C(=O)N1CCC[C@H]1C(=O)N[C@@H](CO)C(=O)N[C@@H](CCCCNC(C)=O)C(N)=O)C(C)C` [Compound 17], the EC50 is reported as 0.001 nM.
